In PMC8792764:
No constants are given. Whether binding was seen depends on the method and setting. Binding calls can cover weak binding; strength is not graded here. Where a sequence is shown, tags or fusion partners need not be part of it. For some assays here: Binding seen in cells or lysates may run through a third protein.

What was measured:
[1] = target: OsRF1 fused to the GAL4 DNA-binding domain (pGBKT7-OsRF1) (rice (Oryza sativa)); assay: two-hybrid; bait pGBKT7-OsRF1 (GAL4 BD), prey pGADT7-OsPP2Cs (GAL4 AD), yeast AH109; growth selection on SD-LTH, 30°C, 3 days
[2] = target: OsRF1 fused to the GAL4 DNA-binding domain (pGBKT7-OsRF1) (rice (Oryza sativa)); assay: two-hybrid; bait pGBKT7-OsRF1 (GAL4 BD), prey pGADT7-OsPP2Cs (GAL4 AD), yeast AH109; colour change on SD-LT with X-α-Gal, 30°C, 3 days
[3] = target: OsRF1 fused to the C-terminal part of YFP (pVYCE-OsRF1) (rice (Oryza sativa)); assay: split reporter; BiFC in rice protoplasts co-transformed with pVYCE-OsRF1 and pVYNE-OsPP2C; 16 h with 50 μM MG132 (also looked at without MG132); confocal microscopy
[4] = target: OsRF1-GFP fusion protein (rice (Oryza sativa)); assay: co-IP; rice protoplasts co-transfected with OsRF1-GFP and OsPP2C09-HA, 20 h with 10 μM MG132; lysate on GFP-Trap beads, 4°C, 2 h; 150 mM NaCl, 50 mM Tris-HCl pH 7.5; blots with anti-HA and anti-GFP

B1: OsPP2C09 fused to the GAL4 activation domain (pGADT7-OsPP2C09) (enzyme, UniProt Q5N9N2 1-414)
chain: MAEICCEEAMSPPATATAAVAAAVSASAAAAVSSAIDRRRRRMEMRRIRIASDLELQAGEDGRPGKRQRLARTASGAPRPDEDSASERPSCGRTEEFPRYGVTAVCGRRREMEDAVSIRPDFLPASGKFHFYGVFDGHGCSHVATTCQDRMHEIVAEEHNKGASGEVAPWRDVMEKSFARMDGEVGNRASTRSDDEPACPCEQQTPSRRDHAGSTAVVAVVSPTQVVVANAGDSRAVISRAGVPVALSVDHKPDRPDELERIEAAGGRVIYWDGARVLGVLAMSRAIGDGYLKPYVTSEPEVTVTERTDDDECLILASDGLWDVVTNEMACEVVRACFHNNGPPAPAARPSGVPSSAEAAETENGGAASVKGISKAESSDKACSDAAMLLTKLALARRSADNVSVVVVDLRRGL
Which binding [1] does the source give for B1 here?
The binding was “binds”.

And the binding [2]?
The binding was “binds”.

B2: OsPP2C09 fused to the N-terminal part of YFP (pVYNE-OsPP2C09) (enzyme, UniProt Q5N9N2 1-414)
chain: B1 chain
Which binding [3] does the source give for B2 here?
Its binding is “binds”.

B3: OsPP2C09-HA fusion protein (enzyme, UniProt Q5N9N2 1-414)
chain: B1 chain
B3 was tested. Which binding [4] did it give?
The binding was “binds”.

B4: OsPP2C30 fused to the GAL4 activation domain (pGADT7-OsPP2C30) (enzyme, UniProt Q84JI0 1-404)
chain: MAEICCEVVAGSSSEGKGPECDTGSRAARRRRMEIRRLRVVAERGAEEETSGKRRRLDGGGGEASTDEEDREVERARYGFTSVCGRRRDMEDSVSACPGFLPGHHFFGVFDGHGCSHVATSCGQRMHEIVVDEAGAAAGSAGLDEEARWRGVMERSFARMDAEAVASSRGSVAPAPTCRCEMQLPKCDHVGSTAVVAVLGPRHVVVANCGDSRAVLCRGGAAIPLSCDHKPDRPDELERIHAAGGRVIFWDGARVFGMLAMSRAIGDSYLKPYVICDPEVRVMERKDGEDEFLILASDGLWDVVSNEVACNVVRACLRSSGRRERNRSSPTSNLSPRQSSSSGDEAPNDGAPSAAAGSESDEESAAEEDKACAEAAVLLTKLALARQTSDNVSVVVVNLRRRKL
Which results are given for B4?
binding [1]: binds; binding [2]: binds weakly

B5: OsPP2C53 fused to the GAL4 activation domain (pGADT7-OsPP2C53) (enzyme, UniProt Q6L4R7 1-445)
chain: MEDLALPAAPPAPTLSFTLLAAAAAVAEAMEEALGAALPPLTAPVPAPGDDSACGSPCSVASDCSSVASADFEGFAELGTSLLAGPAVLFDDLTAASVAVAEAAEPRAVGATARSVFAMDCVPLWGLESICGRRPEMEDDYAVVPRFFDLPLWMVAGDAAVDGLDRASFRLPAHFFAVYDGHGGVQVANYCRKRIHAVLTEELRRAEDDACGSDLSGLESKKLWEKAFVDCFSRVDAEVGGNAASGAPPVAPDTVGSTAVVAVVCSSHVIVANCGDSRAVLCRGKQPLPLSLDHKPNREDEYARIEALGGKVIQWNGYRVLGVLAMSRSIGDKYLKPYIIPVPEVTVVARAKDDDCLILASDGLWDVMSNEEVCDAARKRILLWHKKNAATASTSSAQISGDSSDPAAQAAADYLSKLALQKGSKDNITVVVIDLKAHRKFKSKA
How did the binding [1] turn out when B5 was run?
Its binding is “binds”.

And the binding [2]?
The binding was “binds weakly”.

B6: OsPP2C08 fused to the GAL4 activation domain (pGADT7-OsPP2C08) (enzyme, UniProt Q5SN75 1-403)
chain: MSSDTSRRDHAAMAVREVLAGDRKVGTVSRSARRRRLELRRLGRTASAVAEDDAAKRVRPASDSSSDSSESAKVAPEPTAEVARWPACVSHGAVSVIGRRREMEDAIFVAAPFLAASKEAAVEGSGVAEEEGKEEDEGFFAVYDGHGGSRVAEACRERMHVVLAEEVRVRRLLQGGGGGADVEDEDRARWKEAMAACFTRVDGEVGGAEEADTGEQTVGSTAVVAVVGPRRIVVANCGDSRAVLSRGGVAVPLSSDHKPDRPDEMERVEAAGGRVINWNGYRILGVLATSRSIGDYYLKPYVIAEPEVTVMDRTDKDEFLILASDGLWDVVSNDVACKIARNCLSGRAASKYPESVSGSTAADAAALLVELAISRGSKDNISVVVVELRRLRSRTTASKENGR
With B6 as the binder, how does the binding [2] read?
Its binding is “binds weakly”.

B7: OsPP2C53 fused to the N-terminal part of YFP (pVYNE-OsPP2C53) (enzyme, UniProt Q6L4R7 1-445)
chain: B5 chain
For B7, which binding [3] is on record?
Its binding is “no binding”.

B8: OsPP2C30 fused to the N-terminal part of YFP (pVYNE-OsPP2C30) (enzyme, UniProt Q84JI0 1-404)
chain: B4 chain
Which binding [3] does the source give for B8 here?
The binding was “no binding”.
